In patent US7402598B2, “Arylethanolamine β2-adrenoreceptor agonist compounds” (Glaxo Group Limited, priority 2002, dated 2008):
Where a name gives a salt, the structure may show the parent alone. Some results were stated once for a whole list of compounds, not compound by compound. For some of these results: For at least one compound, name, drawing or mass did not settle the structure.

By UniProt entry, the sequences of proteins in these tests, tags left out.
UniProt P07550, whole entry: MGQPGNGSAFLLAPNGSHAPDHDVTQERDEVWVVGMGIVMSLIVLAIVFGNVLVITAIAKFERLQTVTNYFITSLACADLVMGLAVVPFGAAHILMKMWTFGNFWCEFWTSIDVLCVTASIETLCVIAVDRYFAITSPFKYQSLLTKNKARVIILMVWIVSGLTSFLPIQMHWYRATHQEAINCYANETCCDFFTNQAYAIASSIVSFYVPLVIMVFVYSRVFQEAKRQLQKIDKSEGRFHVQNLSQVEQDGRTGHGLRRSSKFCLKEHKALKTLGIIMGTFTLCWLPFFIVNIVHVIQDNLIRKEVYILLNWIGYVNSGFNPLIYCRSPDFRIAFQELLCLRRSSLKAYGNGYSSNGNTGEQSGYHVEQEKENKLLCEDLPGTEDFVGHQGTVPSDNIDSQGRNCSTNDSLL

target: PDE4; test: not given; details: 1 nM [3H]R-rolipram binding vs catalytic activity with 1 μM [3H]-cAMP; cited from earlier work

Row | Structure (SMILES) | IC50 ratio (IC50 for PDE4 form binding rolipram with high affinity divided by IC50 for form binding rolipram with low affinity)
1 | COC(=O)C1CC(C#N)(c2ccc(OC(F)F)c(OCC3CC3)c2)CCC1=O (stereo not shown) [2-carbomethoxy-4-cyano-4-(3-cyclopropylmethoxy-4-difluoromethoxyphenyl)cyclohexan-1-one] | ≥ 0.1
2 | COc1ccc([C@]2(C#N)CC[C@@H](C(=O)O)CC2)cc1OC1CCCC1 [cis 4-cyano-4-(3-cyclopentyloxy-4-methoxyphenyl)cyclohexan-1-carboxylic acid] | ≥ 0.1
3 | N#CC1(c2ccc(OC(F)F)c(OCC3CC3)c2)CCC(O)CC1 (stereo not drawn) [cis-[4-cyano-4-(3-cyclopropylmethoxy-4-difluoromethoxyphenyl)cyclohexan-1-ol]] | ≥ 0.1

target: T1, human beta 2 adrenoreceptor (Homo sapiens, UniProt P07550); test: frog melanophores transfected with the human beta 2 adrenoreceptor, pigment dispersal (light transmittance); format: cell-based; details: beta 2 agonist activity; frog melanophores incubated with melatonin; change in light transmittance
T1 construct: expressed in transfected cells; host or cells: frog melanophores

Row | Structure (SMILES) | IC50
4 | O=c1ccc2c([C@@H](O)CNCCCCCCOCCCCc3ccccc3)ccc(O)c2[nH]1 [Example 1, 8-Hydroxy-5-((1R)-1-hydroxy-2-{[6-(4-phenylbutoxy)hexyl]amino}ethyl)quinolin-2(1H)-one acetate] | < 1000 nM
5 | NS(=O)(=O)c1cccc(CCCCOCCCCCCNC[C@H](O)c2ccc(O)c3[nH]c(=O)ccc23)c1 [Example 2, 3-{4-[(6-{[(2R)-2-Hydroxy-2-(8-hydroxy-2-oxo-1,2-dihydroquinolin-5-yl)ethyl]amino}hexyl)oxy]butyl}benzenesulfonamide acetate] | < 1000 nM
6 | O=C1COc2c(C(O)CNCCCCCCOCCCCc3ccccc3)ccc(O)c2N1 (stereo not shown) [Example 3, 5-Hydroxy-8-(1-hydroxy-2-{[6-(4-phenylbutoxy)hexyl]amino}ethyl)-2H-1,4-benzoxazin-3(4H)-one acetate] | < 1000 nM
7 | NS(=O)(=O)c1cccc(CCCCOCCCCCCNCC(O)c2ccc(O)c3c2OCC(=O)N3)c1 (stereo not shown) [Example 4, 3-{4-[(6-{[2-Hydroxy-2-(5-hydroxy-3-oxo-3,4-dihydro-2H-1,4-benzoxazin-8-yl)ethyl]amino}hexyl)oxy]butyl}benzenesulfonamide] | < 1000 nM
8 | O=c1[nH]c2c(O)ccc([C@@H](O)CNCCCCCCOCCCCc3ccccc3)c2s1 [Example 5, 4-Hydroxy-7-((1R)-1-hydroxy-2-{[6-(4-phenylbutoxy)hexyl]amino}ethyl)-1,3-benzothiazol-2(3H)-one formate] | < 1000 nM
9 | O=c1[nH]c2c(O)ccc(C(O)CNCCCCCCOCCCCc3ccccc3)c2s1 (stereo not shown) [Example 6, 4-Hydroxy-7-(1-hydroxy-2-{[6-(4-phenylbutoxy)hexyl]amino}ethyl)-1,3-benzothiazol-2(3H)-one formate] | < 1000 nM
10 | NS(=O)(=O)c1cccc(CCCCOCCCCCCNC[C@H](O)c2ccc(O)c(F)c2)c1 [Example 7, 3-{4-[(6-{[(2R)-2-(3-Fluoro-4-hydroxyphenyl)-2-hydroxyethyl]amino}hexyl)oxy]butyl}benzenesulfonamide formate] | < 1000 nM
11 | NS(=O)(=O)c1cccc(CCCCOCCCCCCNCC(O)c2ccc(O)c(CO)n2)c1 (stereo not shown) [Example 8, 3-(4-{[6-({2-Hydroxy-2-[5-hydroxy-6-(hydroxymethyl)pyridin-2-yl]ethyl}amino)hexyl]oxy}butyl)benzenesulfonamide formate] | < 1000 nM
12 | CS(=O)(=O)Nc1cc([C@@H](O)CNCCCCCCOCCCCc2cccc(S(N)(=O)=O)c2)ccc1O [Example 9, 3-[4-({6-[((2R)-2-Hydroxy-2-{4-hydroxy-3-[(methylsulfonyl)amino]phenyl}ethyl)amino]hexyl}oxy)butyl]benzenesulfonamide formate] | < 1000 nM
13 | NS(=O)(=O)c1cccc(CCCOCCCCCCCNC[C@H](O)c2ccc(O)c(F)c2)c1 [Example 10, 3-{3-[(7-{[(2R)-2-(3-Fluoro-4-hydroxyphenyl)-2-hydroxyethyl]amino}heptyl)oxy]propyl}benzenesulfonamide formate] | < 1000 nM
14 | NS(=O)(=O)c1cccc(CCCOCCCCCCCNCC(O)c2ccc(O)c(CO)n2)c1 (stereo not shown) [Example 11, 3-(3-{[7-({2-Hydroxy-2-[5-hydroxy-6-(hydroxymethyl)pyridin-2-yl]ethyl}amino)heptyl]oxy}propyl)benzenesulfonamide formate] | < 1000 nM
15 | CS(=O)(=O)Nc1cc([C@@H](O)CNCCCCCCCOCCCc2cccc(S(N)(=O)=O)c2)ccc1O [Example 12, 3-[3-({7-[((2R)-2-Hydroxy-2-{4-hydroxy-3-[(methylsulfonyl)amino]phenyl}ethyl)amino]heptyl}oxy)propyl]benzenesulfonamide formate] | < 1000 nM
16 | NS(=O)(=O)c1cccc(CCCOCCCCCCCNC[C@H](O)c2ccc(O)c3[nH]c(=O)ccc23)c1 [Example 13, 3-{3-[(7-{[(2R)-2-Hydroxy-2-(8-hydroxy-2-oxo-1,2-dihydroquinolin-5-yl)ethyl]amino}heptyl)oxy]propyl}benzenesulfonamide acetate] | < 1000 nM
